{
  "source": "the supplement of paper PMC11438910",
  "binders": {"B1": {"name": "3S41.4 (protein)", "chain 1": "EVQLVESGGGLVQPGGSLRLSCATSGFTFSNYWMYWFRQAPGKGLEWVSTISGSSTNTYYSGSVKGRFTISRDNAKNTLYLQMNSLRAEDTAVYYCARRGTDSSHWYFDLWGPGTPITVSS", "chain 2": "EIVMTQSPATLSLSPGERATLSCRASQSVSSNLAWYQQKPGQGPRLLIYDASNRATGIPDRFGGSGSGTDFTLTISSLEPEDVGVYYCQQESNWPLTFGGGTKVEIK"}},
  "test_in_all_cases": "fluorescence intensity of antibody binding to polysaccharide-coupled beads; higher = stronger binding",
  "key": {"[1]": {"target": "pneumococcal polysaccharide Pn15B"}, "[2]": {"target": "pneumococcal polysaccharide Pn15C"}, "[3]": {"target": "pneumococcal polysaccharide Pn15F"}, "[4]": {"target": "pneumococcal polysaccharide Pn16A"}, "[5]": {"target": "pneumococcal polysaccharide Pn16F"}, "[6]": {"target": "pneumococcal polysaccharide Pn17A"}, "[7]": {"target": "pneumococcal polysaccharide Pn17F"}, "[8]": {"target": "pneumococcal polysaccharide Pn18A"}, "[9]": {"target": "pneumococcal polysaccharide Pn18B"}, "[10]": {"target": "pneumococcal polysaccharide Pn18C"}, "[11]": {"target": "pneumococcal polysaccharide Pn18F"}, "[12]": {"target": "pneumococcal polysaccharide Pn19A"}, "[13]": {"details": "antibody concentration 2337.65 ng/mL"}, "[14]": {"details": "antibody concentration 12500 ng/mL"}, "[15]": {"details": "antibody concentration 0.1 ng/mL"}, "[16]": {"details": "antibody concentration 0.534724 ng/mL"}, "[17]": {"details": "antibody concentration 2.8593 ng/mL"}, "[18]": {"details": "antibody concentration 15.2894 ng/mL"}, "[19]": {"details": "antibody concentration 81.7561 ng/mL"}, "[20]": {"details": "antibody concentration 437.17 ng/mL"}},
  "note": "This is one part of the list. Most of these values are background signal.",
  "data": [
    {"binder": "B1", "values": [
      {"measurement": "fluorescence intensity", "setting": "[1]; [13]", "value": 24.2, "unit": "MFI"},
      {"measurement": "fluorescence intensity", "setting": "[1]; [14]", "value": 34.2, "unit": "MFI"},
      {"measurement": "fluorescence intensity", "setting": "[2]; [15]", "value": 16.5, "unit": "MFI"},
      {"measurement": "fluorescence intensity", "setting": "[2]; [16]", "value": 17.8, "unit": "MFI"},
      {"measurement": "fluorescence intensity", "setting": "[2]; [17]", "value": 18.2, "unit": "MFI"},
      {"measurement": "fluorescence intensity", "setting": "[2]; [18]", "value": 17.5, "unit": "MFI"},
      {"measurement": "fluorescence intensity", "setting": "[2]; [19]", "value": 16, "unit": "MFI"},
      {"measurement": "fluorescence intensity", "setting": "[2]; [20]", "value": 18, "unit": "MFI"},
      {"measurement": "fluorescence intensity", "setting": "[2]; [13]", "value": 19, "unit": "MFI"},
      {"measurement": "fluorescence intensity", "setting": "[2]; [14]", "value": 28.2, "unit": "MFI"},
      {"measurement": "fluorescence intensity", "setting": "[3]; [15]", "value": 17.5, "unit": "MFI"},
      {"measurement": "fluorescence intensity", "setting": "[3]; [16]", "value": 17.5, "unit": "MFI"},
      {"measurement": "fluorescence intensity", "setting": "[3]; [17]", "value": 16, "unit": "MFI"},
      {"measurement": "fluorescence intensity", "setting": "[3]; [18]", "value": 16, "unit": "MFI"},
      {"measurement": "fluorescence intensity", "setting": "[3]; [19]", "value": 15.5, "unit": "MFI"},
      {"measurement": "fluorescence intensity", "setting": "[3]; [20]", "value": 19.2, "unit": "MFI"},
      {"measurement": "fluorescence intensity", "setting": "[3]; [13]", "value": 20, "unit": "MFI"},
      {"measurement": "fluorescence intensity", "setting": "[3]; [14]", "value": 32.2, "unit": "MFI"},
      {"measurement": "fluorescence intensity", "setting": "[4]; [15]", "value": 14, "unit": "MFI"},
      {"measurement": "fluorescence intensity", "setting": "[4]; [16]", "value": 13.2, "unit": "MFI"},
      {"measurement": "fluorescence intensity", "setting": "[4]; [17]", "value": 14, "unit": "MFI"},
      {"measurement": "fluorescence intensity", "setting": "[4]; [18]", "value": 13, "unit": "MFI"},
      {"measurement": "fluorescence intensity", "setting": "[4]; [19]", "value": 15.2, "unit": "MFI"},
      {"measurement": "fluorescence intensity", "setting": "[4]; [20]", "value": 15, "unit": "MFI"},
      {"measurement": "fluorescence intensity", "setting": "[4]; [13]", "value": 17, "unit": "MFI"},
      {"measurement": "fluorescence intensity", "setting": "[4]; [14]", "value": 29.5, "unit": "MFI"},
      {"measurement": "fluorescence intensity", "setting": "[5]; [15]", "value": 26.5, "unit": "MFI"},
      {"measurement": "fluorescence intensity", "setting": "[5]; [16]", "value": 23.5, "unit": "MFI"},
      {"measurement": "fluorescence intensity", "setting": "[5]; [17]", "value": 22, "unit": "MFI"},
      {"measurement": "fluorescence intensity", "setting": "[5]; [18]", "value": 22, "unit": "MFI"},
      {"measurement": "fluorescence intensity", "setting": "[5]; [19]", "value": 22.8, "unit": "MFI"},
      {"measurement": "fluorescence intensity", "setting": "[5]; [20]", "value": 25, "unit": "MFI"},
      {"measurement": "fluorescence intensity", "setting": "[5]; [13]", "value": 30.2, "unit": "MFI"},
      {"measurement": "fluorescence intensity", "setting": "[5]; [14]", "value": 50, "unit": "MFI"},
      {"measurement": "fluorescence intensity", "setting": "[6]; [15]", "value": 20, "unit": "MFI"},
      {"measurement": "fluorescence intensity", "setting": "[6]; [16]", "value": 20, "unit": "MFI"},
      {"measurement": "fluorescence intensity", "setting": "[6]; [17]", "value": 20.5, "unit": "MFI"},
      {"measurement": "fluorescence intensity", "setting": "[6]; [18]", "value": 20.5, "unit": "MFI"},
      {"measurement": "fluorescence intensity", "setting": "[6]; [19]", "value": 19.5, "unit": "MFI"},
      {"measurement": "fluorescence intensity", "setting": "[6]; [20]", "value": 22, "unit": "MFI"},
      {"measurement": "fluorescence intensity", "setting": "[6]; [13]", "value": 20.8, "unit": "MFI"},
      {"measurement": "fluorescence intensity", "setting": "[6]; [14]", "value": 30, "unit": "MFI"},
      {"measurement": "fluorescence intensity", "setting": "[7]; [15]", "value": 24.5, "unit": "MFI"},
      {"measurement": "fluorescence intensity", "setting": "[7]; [16]", "value": 25, "unit": "MFI"},
      {"measurement": "fluorescence intensity", "setting": "[7]; [17]", "value": 26.5, "unit": "MFI"},
      {"measurement": "fluorescence intensity", "setting": "[7]; [18]", "value": 27, "unit": "MFI"},
      {"measurement": "fluorescence intensity", "setting": "[7]; [19]", "value": 25, "unit": "MFI"},
      {"measurement": "fluorescence intensity", "setting": "[7]; [20]", "value": 27, "unit": "MFI"},
      {"measurement": "fluorescence intensity", "setting": "[7]; [13]", "value": 28.5, "unit": "MFI"},
      {"measurement": "fluorescence intensity", "setting": "[7]; [14]", "value": 36, "unit": "MFI"},
      {"measurement": "fluorescence intensity", "setting": "[8]; [15]", "value": 23, "unit": "MFI"},
      {"measurement": "fluorescence intensity", "setting": "[8]; [16]", "value": 23, "unit": "MFI"},
      {"measurement": "fluorescence intensity", "setting": "[8]; [17]", "value": 22.5, "unit": "MFI"},
      {"measurement": "fluorescence intensity", "setting": "[8]; [18]", "value": 23, "unit": "MFI"},
      {"measurement": "fluorescence intensity", "setting": "[8]; [19]", "value": 24, "unit": "MFI"},
      {"measurement": "fluorescence intensity", "setting": "[8]; [20]", "value": 22.5, "unit": "MFI"},
      {"measurement": "fluorescence intensity", "setting": "[8]; [13]", "value": 27, "unit": "MFI"},
      {"measurement": "fluorescence intensity", "setting": "[8]; [14]", "value": 39, "unit": "MFI"},
      {"measurement": "fluorescence intensity", "setting": "[9]; [15]", "value": 30.5, "unit": "MFI"},
      {"measurement": "fluorescence intensity", "setting": "[9]; [16]", "value": 29.5, "unit": "MFI"},
      {"measurement": "fluorescence intensity", "setting": "[9]; [17]", "value": 29.2, "unit": "MFI"},
      {"measurement": "fluorescence intensity", "setting": "[9]; [18]", "value": 29.2, "unit": "MFI"},
      {"measurement": "fluorescence intensity", "setting": "[9]; [19]", "value": 30.2, "unit": "MFI"},
      {"measurement": "fluorescence intensity", "setting": "[9]; [20]", "value": 30, "unit": "MFI"},
      {"measurement": "fluorescence intensity", "setting": "[9]; [13]", "value": 35.5, "unit": "MFI"},
      {"measurement": "fluorescence intensity", "setting": "[9]; [14]", "value": 52, "unit": "MFI"},
      {"measurement": "fluorescence intensity", "setting": "[10]; [15]", "value": 18, "unit": "MFI"},
      {"measurement": "fluorescence intensity", "setting": "[10]; [16]", "value": 17, "unit": "MFI"},
      {"measurement": "fluorescence intensity", "setting": "[10]; [17]", "value": 18, "unit": "MFI"},
      {"measurement": "fluorescence intensity", "setting": "[10]; [18]", "value": 18, "unit": "MFI"},
      {"measurement": "fluorescence intensity", "setting": "[10]; [19]", "value": 17.5, "unit": "MFI"},
      {"measurement": "fluorescence intensity", "setting": "[10]; [20]", "value": 19.5, "unit": "MFI"},
      {"measurement": "fluorescence intensity", "setting": "[10]; [13]", "value": 24, "unit": "MFI"},
      {"measurement": "fluorescence intensity", "setting": "[10]; [14]", "value": 42, "unit": "MFI"},
      {"measurement": "fluorescence intensity", "setting": "[11]; [15]", "value": 20.2, "unit": "MFI"},
      {"measurement": "fluorescence intensity", "setting": "[11]; [16]", "value": 22.5, "unit": "MFI"},
      {"measurement": "fluorescence intensity", "setting": "[11]; [17]", "value": 23.5, "unit": "MFI"},
      {"measurement": "fluorescence intensity", "setting": "[11]; [18]", "value": 23, "unit": "MFI"},
      {"measurement": "fluorescence intensity", "setting": "[11]; [19]", "value": 23.5, "unit": "MFI"},
      {"measurement": "fluorescence intensity", "setting": "[11]; [20]", "value": 24.5, "unit": "MFI"},
      {"measurement": "fluorescence intensity", "setting": "[11]; [13]", "value": 30.5, "unit": "MFI"},
      {"measurement": "fluorescence intensity", "setting": "[11]; [14]", "value": 48, "unit": "MFI"},
      {"measurement": "fluorescence intensity", "setting": "[12]; [15]", "value": 17.5, "unit": "MFI"},
      {"measurement": "fluorescence intensity", "setting": "[12]; [16]", "value": 17.2, "unit": "MFI"},
      {"measurement": "fluorescence intensity", "setting": "[12]; [17]", "value": 17.8, "unit": "MFI"},
      {"measurement": "fluorescence intensity", "setting": "[12]; [18]", "value": 18.8, "unit": "MFI"},
      {"measurement": "fluorescence intensity", "setting": "[12]; [19]", "value": 18, "unit": "MFI"},
      {"measurement": "fluorescence intensity", "setting": "[12]; [20]", "value": 20, "unit": "MFI"},
      {"measurement": "fluorescence intensity", "setting": "[12]; [13]", "value": 20, "unit": "MFI"},
      {"measurement": "fluorescence intensity", "setting": "[12]; [14]", "value": 32, "unit": "MFI"}
    ]}
  ]
}
